Experimental data: PubChem BioAssay AID493246 (Drosophila RNAi Screening Center, 2011)
The screen tested about 21,000 reagents; shown is a random part of those that have a named target and a result. In the full data, 429 (2%) are marked active. 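Values are raw and not normalised between plates; calls rest on per-plate z-scores that were not deposited.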 Unmarked entries are inactive. Reagents against one gene are numbered here. Reagent sequences are not shown. Not given: the amount of reagent, the time to read-out.

- Screen: 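Identify essential fly genes by loss of cell viability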 (primary screen)
- Cell system: Drosophila Kc and S2R+ cells
- Reagent: long dsRNA against Drosophila genes
- Measured: 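Cell number per well after knock-down, printed as raw plate values; calls were based on per-plate z-scores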
- Direction: Kc cell number and S2R+ cell number: higher = more cells remaining
- Call rule: 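Active when the per-plate z-score of cell number is 3 or more in the direction of fewer cells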

gene,reagent no.,"Kc cell number, rep 1","Kc cell number, rep 2","S2R+ cell number, rep 1","S2R+ cell number, rep 2"
stw (straw),1,1.47e6,1.55e6,1.32e6,1.27e6
stw (straw),2,1.53e6,1.53e6,1.35e6,1.28e6
lqf (liquid facets),1,1.42e6,1.49e6,1.32e6,1.26e6
Sdb (SAXO downstream of blistered),1,1.73e6,1.65e6,1.28e6,1.49e6
Sdb (SAXO downstream of blistered),2,1.83e6,1.73e6,1.34e6,1.52e6
Sdb (SAXO downstream of blistered),3,1.49e6,1.53e6,1.14e6,1.20e6
CAH8 (Carbonic anhydrase 8),1,1.22e6,1.26e6,1.10e6,1.24e6
CG9920,1,1.20e6,1.26e6,1.20e6,1.32e6
cocoon,1,1.40e6,1.57e6,1.34e6,1.42e6
Bre1,1,9.55e5,1.14e6,1.29e6,8.94e5
Or98a (Odorant receptor 98a),1,1.44e6,1.51e6,9.77e5,1.07e6
Ykt6 (YKT6 v-SNARE),1,5.92e5,,9.33e5,
CG6726,1,1.44e6,1.44e6,9.86e5,1.07e6
CG17264,1,1.31e6,1.38e6,7.22e5,9.40e5
CG5969,1,1.52e6,1.64e6,1.18e6,1.23e6
CG14506,1,1.46e6,1.44e6,1.01e6,1.14e6
CG15093,1,1.42e6,1.49e6,1.25e6,1.32e6
Lrp4 (LDL receptor related protein 4),1,5.60e5,,9.18e5,
lic (licorne),1,5.87e5,,9.70e5,
Membrin,1,1.59e6,1.67e6,1.15e6,1.23e6
CG15283,1,1.65e6,1.72e6,1.30e6,1.70e6
Osi4 (Osiris 4),1,1.58e6,1.61e6,1.29e6,1.49e6
pkaap,1,1.60e6,1.69e6,1.33e6,1.51e6
Mst85C,1,1.68e6,1.91e6,1.42e6,1.66e6
Svip (small VCP interacting protein),1,1.56e6,1.59e6,1.20e6,1.38e6
CG12898,1,1.80e6,1.81e6,1.41e6,1.59e6
Rpn2 (Regulatory particle non-ATPase 2),1,2.89e5 (active),,4.78e5,
ProtB (Protamine B),1,1.53e6,1.61e6,1.32e6,1.48e6
abo (abnormal oocyte),1,1.57e6,1.61e6,1.13e6,1.25e6
CG30470 (retired record),1,1.43e6 (active),1.47e6,5.94e5,7.40e5
CG30470 (retired record),2,1.62e6,1.70e6,1.36e6,1.54e6
CG30470 (retired record),3,1.61e6,1.67e6,1.33e6,1.50e6
CG30470 (retired record),4,1.62e6,1.63e6,1.32e6,1.50e6
Cog4 (Component of oligomeric golgi complex 4),1,1.24e6,1.46e6,1.17e6,1.29e6
CG16743,1,1.68e6,1.64e6,1.14e6,1.21e6
DIP-iota (Dpr-interacting protein iota),1,1.49e6,1.40e6,1.16e6,1.25e6
CG10839,1,1.56e6,1.60e6,1.29e6,1.52e6
CG33914,1,1.39e6,1.53e6,9.68e5,1.13e6
pasha (partner of drosha),1,4.65e5,,7.25e5,
D2hgdh (D-2-hydroxyglutaric acid dehydrogenase),1,5.49e5,,8.30e5,
